# Measurements as given in the supplement of paper PMC11438910.
# This is one part of the list. Only a few entries rise above the background.
# Assays:
# Assay in all cases: fluorescence intensity of antibody binding to polysaccharide-coupled beads; higher = stronger binding
# [1] = target: pneumococcal polysaccharide Pn15B
# [2] = target: pneumococcal polysaccharide Pn15C
# [3] = target: pneumococcal polysaccharide Pn15F
# [4] = target: pneumococcal polysaccharide Pn16A
# [5] = target: pneumococcal polysaccharide Pn16F
# [6] = target: pneumococcal polysaccharide Pn17A
# [7] = target: pneumococcal polysaccharide Pn17F
# [8] = target: pneumococcal polysaccharide Pn18A
# [9] = target: pneumococcal polysaccharide Pn18B
# [10] = target: pneumococcal polysaccharide Pn18C
# [11] = target: pneumococcal polysaccharide Pn18F
# [12] = target: pneumococcal polysaccharide Pn19A
# [13] = target: pneumococcal polysaccharide Pn19B
# [14] = target: pneumococcal polysaccharide Pn19C
# [15] = target: pneumococcal polysaccharide Pn19F
# [16] = target: pneumococcal polysaccharide Pn2
# [17] = target: pneumococcal polysaccharide Pn20A
# [18] = target: pneumococcal polysaccharide Pn20B
# [19] = target: pneumococcal polysaccharide Pn21
# [20] = target: pneumococcal polysaccharide Pn22A
# [21] = target: pneumococcal polysaccharide Pn22F
# [22] = target: pneumococcal polysaccharide Pn23A
# [23] = target: pneumococcal polysaccharide Pn23B
# [24] = target: pneumococcal polysaccharide Pn23F
# [25] = antibody concentration 2337.65 ng/mL
# [26] = antibody concentration 12500 ng/mL
# [27] = antibody concentration 0.1 ng/mL
# [28] = antibody concentration 0.534724 ng/mL
# [29] = antibody concentration 2.8593 ng/mL
# [30] = antibody concentration 15.2894 ng/mL
# [31] = antibody concentration 81.7561 ng/mL
# [32] = antibody concentration 437.17 ng/mL
binder,measurement,setting,value
4-127.2 (protein) chain 1: QVQLQESGPGLVKPSETLSLTCAVSGYSVNSGHGWTWIRQSPGKGLEWIGYIGGGSGSSNYNPSLKSRVTISKDTSNNQLSLKLRSLTTADTAMYYCARRVPADRSGNDYWGQGVLVTVSS chain 2: QSVLTQPPSVSGDPGQRVTISCTGSSSNIGDYYGYWYQQFPGTAPKLLIFDDNNRPSGISDRFSGSKAGTSASLTITGLQPGDEADYYCGAWDGSLNAHVFGSGTKLTVL,fluorescence intensity,[1]; [25],24 MFI
same,fluorescence intensity,[1]; [26],29 MFI
same,fluorescence intensity,[2]; [27],15.2 MFI
same,fluorescence intensity,[2]; [28],16.5 MFI
same,fluorescence intensity,[2]; [29],16.5 MFI
same,fluorescence intensity,[2]; [30],15.5 MFI
same,fluorescence intensity,[2]; [31],18 MFI
same,fluorescence intensity,[2]; [32],17 MFI
same,fluorescence intensity,[2]; [25],20.8 MFI
same,fluorescence intensity,[2]; [26],22.8 MFI
same,fluorescence intensity,[3]; [27],16 MFI
same,fluorescence intensity,[3]; [28],18 MFI
same,fluorescence intensity,[3]; [29],16.5 MFI
same,fluorescence intensity,[3]; [30],18.5 MFI
same,fluorescence intensity,[3]; [31],17.5 MFI
same,fluorescence intensity,[3]; [32],17 MFI
same,fluorescence intensity,[3]; [25],19.5 MFI
same,fluorescence intensity,[3]; [26],34 MFI
same,fluorescence intensity,[4]; [27],14 MFI
same,fluorescence intensity,[4]; [28],14 MFI
same,fluorescence intensity,[4]; [29],12.8 MFI
same,fluorescence intensity,[4]; [30],15.8 MFI
same,fluorescence intensity,[4]; [31],15.5 MFI
same,fluorescence intensity,[4]; [32],14.5 MFI
same,fluorescence intensity,[4]; [25],15 MFI
same,fluorescence intensity,[4]; [26],25.5 MFI
same,fluorescence intensity,[5]; [27],23.8 MFI
same,fluorescence intensity,[5]; [28],22 MFI
same,fluorescence intensity,[5]; [29],23 MFI
same,fluorescence intensity,[5]; [30],23.2 MFI
same,fluorescence intensity,[5]; [31],23.8 MFI
same,fluorescence intensity,[5]; [32],23.5 MFI
same,fluorescence intensity,[5]; [25],29.8 MFI
same,fluorescence intensity,[5]; [26],33.2 MFI
same,fluorescence intensity,[6]; [27],21 MFI
same,fluorescence intensity,[6]; [28],21 MFI
same,fluorescence intensity,[6]; [29],20.5 MFI
same,fluorescence intensity,[6]; [30],19.5 MFI
same,fluorescence intensity,[6]; [31],20.5 MFI
same,fluorescence intensity,[6]; [32],20 MFI
same,fluorescence intensity,[6]; [25],20.5 MFI
same,fluorescence intensity,[6]; [26],25 MFI
same,fluorescence intensity,[7]; [27],25.5 MFI
same,fluorescence intensity,[7]; [28],25 MFI
same,fluorescence intensity,[7]; [29],25 MFI
same,fluorescence intensity,[7]; [30],23.8 MFI
same,fluorescence intensity,[7]; [31],24.5 MFI
same,fluorescence intensity,[7]; [32],25.5 MFI
same,fluorescence intensity,[7]; [25],26.5 MFI
same,fluorescence intensity,[7]; [26],30.8 MFI
same,fluorescence intensity,[8]; [27],23 MFI
same,fluorescence intensity,[8]; [28],23.5 MFI
same,fluorescence intensity,[8]; [29],23 MFI
same,fluorescence intensity,[8]; [30],22 MFI
same,fluorescence intensity,[8]; [31],22 MFI
same,fluorescence intensity,[8]; [32],24.5 MFI
same,fluorescence intensity,[8]; [25],25.5 MFI
same,fluorescence intensity,[8]; [26],33 MFI
same,fluorescence intensity,[9]; [27],29 MFI
same,fluorescence intensity,[9]; [28],29 MFI
same,fluorescence intensity,[9]; [29],30 MFI
same,fluorescence intensity,[9]; [30],28.5 MFI
same,fluorescence intensity,[9]; [31],30.5 MFI
same,fluorescence intensity,[9]; [32],30 MFI
same,fluorescence intensity,[9]; [25],33.5 MFI
same,fluorescence intensity,[9]; [26],39.5 MFI
same,fluorescence intensity,[10]; [27],16.8 MFI
same,fluorescence intensity,[10]; [28],17.8 MFI
same,fluorescence intensity,[10]; [29],17.5 MFI
same,fluorescence intensity,[10]; [30],17 MFI
same,fluorescence intensity,[10]; [31],17.5 MFI
same,fluorescence intensity,[10]; [32],23 MFI
same,fluorescence intensity,[10]; [25],26 MFI
same,fluorescence intensity,[10]; [26],32.5 MFI
same,fluorescence intensity,[11]; [27],23 MFI
same,fluorescence intensity,[11]; [28],21.8 MFI
same,fluorescence intensity,[11]; [29],23 MFI
same,fluorescence intensity,[11]; [30],21.5 MFI
same,fluorescence intensity,[11]; [31],22.5 MFI
same,fluorescence intensity,[11]; [32],24.5 MFI
same,fluorescence intensity,[11]; [25],29 MFI
same,fluorescence intensity,[11]; [26],34.2 MFI
same,fluorescence intensity,[12]; [27],17 MFI
same,fluorescence intensity,[12]; [28],16.2 MFI
same,fluorescence intensity,[12]; [29],18 MFI
same,fluorescence intensity,[12]; [30],17.5 MFI
same,fluorescence intensity,[12]; [31],19 MFI
same,fluorescence intensity,[12]; [32],18.2 MFI
same,fluorescence intensity,[12]; [25],19.5 MFI
same,fluorescence intensity,[12]; [26],31 MFI
same,fluorescence intensity,[13]; [27],28.5 MFI
same,fluorescence intensity,[13]; [28],28.2 MFI
same,fluorescence intensity,[13]; [29],27.5 MFI
same,fluorescence intensity,[13]; [30],28 MFI
same,fluorescence intensity,[13]; [31],28.2 MFI
same,fluorescence intensity,[13]; [32],28.5 MFI
same,fluorescence intensity,[13]; [25],48.2 MFI
same,fluorescence intensity,[13]; [26],328 MFI
same,fluorescence intensity,[14]; [27],25 MFI
same,fluorescence intensity,[14]; [28],24.5 MFI
same,fluorescence intensity,[14]; [29],24 MFI
same,fluorescence intensity,[14]; [30],24.5 MFI
same,fluorescence intensity,[14]; [31],23.8 MFI
same,fluorescence intensity,[14]; [32],24 MFI
same,fluorescence intensity,[14]; [25],37.5 MFI
same,fluorescence intensity,[14]; [26],200 MFI
same,fluorescence intensity,[15]; [27],24 MFI
same,fluorescence intensity,[15]; [28],23.8 MFI
same,fluorescence intensity,[15]; [29],24.8 MFI
same,fluorescence intensity,[15]; [30],24 MFI
same,fluorescence intensity,[15]; [31],25.8 MFI
same,fluorescence intensity,[15]; [32],30 MFI
same,fluorescence intensity,[15]; [25],34 MFI
same,fluorescence intensity,[15]; [26],41.8 MFI
same,fluorescence intensity,[16]; [27],20.2 MFI
same,fluorescence intensity,[16]; [28],19 MFI
same,fluorescence intensity,[16]; [29],19.5 MFI
same,fluorescence intensity,[16]; [30],18 MFI
same,fluorescence intensity,[16]; [31],19.5 MFI
same,fluorescence intensity,[16]; [32],19.5 MFI
same,fluorescence intensity,[16]; [25],22.5 MFI
same,fluorescence intensity,[16]; [26],25.5 MFI
same,fluorescence intensity,[17]; [27],22.2 MFI
same,fluorescence intensity,[17]; [28],21.2 MFI
same,fluorescence intensity,[17]; [29],22 MFI
same,fluorescence intensity,[17]; [30],22.2 MFI
same,fluorescence intensity,[17]; [31],21.5 MFI
same,fluorescence intensity,[17]; [32],23.5 MFI
same,fluorescence intensity,[17]; [25],34 MFI
same,fluorescence intensity,[17]; [26],214 MFI
same,fluorescence intensity,[18]; [27],24 MFI
same,fluorescence intensity,[18]; [28],23 MFI
same,fluorescence intensity,[18]; [29],22.5 MFI
same,fluorescence intensity,[18]; [30],22 MFI
same,fluorescence intensity,[18]; [31],23 MFI
same,fluorescence intensity,[18]; [32],24.5 MFI
same,fluorescence intensity,[18]; [25],26 MFI
same,fluorescence intensity,[18]; [26],50 MFI
same,fluorescence intensity,[19]; [27],17.2 MFI
same,fluorescence intensity,[19]; [28],19.5 MFI
same,fluorescence intensity,[19]; [29],18.5 MFI
same,fluorescence intensity,[19]; [30],18.5 MFI
same,fluorescence intensity,[19]; [31],17.2 MFI
same,fluorescence intensity,[19]; [32],18 MFI
same,fluorescence intensity,[19]; [25],18.2 MFI
same,fluorescence intensity,[19]; [26],26 MFI
same,fluorescence intensity,[20]; [27],21.5 MFI
same,fluorescence intensity,[20]; [28],20.5 MFI
same,fluorescence intensity,[20]; [29],21.5 MFI
same,fluorescence intensity,[20]; [30],19.5 MFI
same,fluorescence intensity,[20]; [31],21 MFI
same,fluorescence intensity,[20]; [32],21 MFI
same,fluorescence intensity,[20]; [25],26 MFI
same,fluorescence intensity,[20]; [26],88.5 MFI
same,fluorescence intensity,[21]; [27],30.2 MFI
same,fluorescence intensity,[21]; [28],32 MFI
same,fluorescence intensity,[21]; [29],31.8 MFI
same,fluorescence intensity,[21]; [30],27.8 MFI
same,fluorescence intensity,[21]; [31],30 MFI
same,fluorescence intensity,[21]; [32],30.8 MFI
same,fluorescence intensity,[21]; [25],33 MFI
same,fluorescence intensity,[21]; [26],46 MFI
same,fluorescence intensity,[22]; [27],23.5 MFI
same,fluorescence intensity,[22]; [28],25.8 MFI
same,fluorescence intensity,[22]; [29],24.5 MFI
same,fluorescence intensity,[22]; [30],23.8 MFI
same,fluorescence intensity,[22]; [31],26.5 MFI
same,fluorescence intensity,[22]; [32],29.5 MFI
same,fluorescence intensity,[22]; [25],52.5 MFI
same,fluorescence intensity,[22]; [26],67.8 MFI
same,fluorescence intensity,[23]; [27],28.5 MFI
same,fluorescence intensity,[23]; [28],29 MFI
same,fluorescence intensity,[23]; [29],28.5 MFI
same,fluorescence intensity,[23]; [30],28.2 MFI
same,fluorescence intensity,[23]; [31],28.5 MFI
same,fluorescence intensity,[23]; [32],28.5 MFI
same,fluorescence intensity,[23]; [25],32 MFI
same,fluorescence intensity,[23]; [26],36.5 MFI
same,fluorescence intensity,[24]; [27],16.5 MFI
same,fluorescence intensity,[24]; [28],16.5 MFI

# Reprinted at random: 2 records from the list, in no set order.
binder,measurement,setting,value
4-127.2 (protein) chain 1: QVQLQESGPGLVKPSETLSLTCAVSGYSVNSGHGWTWIRQSPGKGLEWIGYIGGGSGSSNYNPSLKSRVTISKDTSNNQLSLKLRSLTTADTAMYYCARRVPADRSGNDYWGQGVLVTVSS chain 2: QSVLTQPPSVSGDPGQRVTISCTGSSSNIGDYYGYWYQQFPGTAPKLLIFDDNNRPSGISDRFSGSKAGTSASLTITGLQPGDEADYYCGAWDGSLNAHVFGSGTKLTVL,fluorescence intensity,[13]; [27],28.5 MFI
same,fluorescence intensity,[4]; [29],12.8 MFI

# Part of the list above, as tab-separated lines.
binder	measurement	setting	value
4-127.2 (protein) chain 1: QVQLQESGPGLVKPSETLSLTCAVSGYSVNSGHGWTWIRQSPGKGLEWIGYIGGGSGSSNYNPSLKSRVTISKDTSNNQLSLKLRSLTTADTAMYYCARRVPADRSGNDYWGQGVLVTVSS chain 2: QSVLTQPPSVSGDPGQRVTISCTGSSSNIGDYYGYWYQQFPGTAPKLLIFDDNNRPSGISDRFSGSKAGTSASLTITGLQPGDEADYYCGAWDGSLNAHVFGSGTKLTVL	fluorescence intensity	[19]; [31]	17.2 MFI
same	fluorescence intensity	[19]; [32]	18 MFI
